The target in experiment [1] is T1, NudC, two-hybrid fusion used with Hfq (E. coli) (UniProt P32664).
T1 sequence: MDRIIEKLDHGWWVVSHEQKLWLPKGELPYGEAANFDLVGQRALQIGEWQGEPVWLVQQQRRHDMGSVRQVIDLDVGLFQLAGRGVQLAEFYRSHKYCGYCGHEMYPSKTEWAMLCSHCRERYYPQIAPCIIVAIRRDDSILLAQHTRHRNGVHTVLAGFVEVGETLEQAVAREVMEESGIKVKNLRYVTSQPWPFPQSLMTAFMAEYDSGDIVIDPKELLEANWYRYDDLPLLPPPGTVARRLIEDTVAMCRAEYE
Put plainly: two-hybrid; bacterial adenylate cyclase two-hybrid (BACTH) in E. coli BTH101; T18 and T25 fusions; colonies on LB agar with X-gal (40 µg/mL) and IPTG (0.5 mM) at 30°C, colour read after 2 days.

By UniProt entry, the sequences of proteins in these tests, tags left out.
UniProt P0A6X3: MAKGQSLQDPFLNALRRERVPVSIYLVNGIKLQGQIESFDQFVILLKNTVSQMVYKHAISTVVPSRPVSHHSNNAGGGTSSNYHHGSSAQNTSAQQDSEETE

Experiment [2] addresses T2, polyhistidine-tagged NudC (NudC-His) (E. coli) (UniProt P32664).
T2 sequence: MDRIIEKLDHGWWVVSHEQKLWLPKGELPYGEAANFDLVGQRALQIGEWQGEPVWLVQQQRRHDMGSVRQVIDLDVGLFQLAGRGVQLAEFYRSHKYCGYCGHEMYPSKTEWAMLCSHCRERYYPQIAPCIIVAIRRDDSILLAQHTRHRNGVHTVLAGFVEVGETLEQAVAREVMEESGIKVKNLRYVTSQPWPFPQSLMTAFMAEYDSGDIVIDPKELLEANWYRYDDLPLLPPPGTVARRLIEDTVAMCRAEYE
Put plainly: pull-down; 243 µg purified recombinant NudC-His added to 5 mg lysate of E. coli BL21(DE3)RIL (16°C or 37°C) or BW25113 (16°C); Ni2+-charged Chelating Sepharose, 1 h 30 min at 8°C, washes with 60 mM imidazole; SDS-PAGE, band near 70 kDa cut out and identified by mass spectrometry; only the target purified.

Experiment [3] deals with T3, NudC-His expressed in an Hfq-deficient strain (JW4130) (E. coli) (UniProt P32664).
T3 sequence: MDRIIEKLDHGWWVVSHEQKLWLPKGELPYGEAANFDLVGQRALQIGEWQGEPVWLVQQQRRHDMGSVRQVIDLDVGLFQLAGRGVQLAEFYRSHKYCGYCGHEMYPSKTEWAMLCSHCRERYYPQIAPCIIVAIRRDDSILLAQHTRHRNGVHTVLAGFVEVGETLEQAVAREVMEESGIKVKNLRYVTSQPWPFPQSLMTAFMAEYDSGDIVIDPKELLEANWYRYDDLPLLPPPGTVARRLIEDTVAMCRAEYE
Put plainly: pull-down; NudC-His expressed in E. coli BL21(DE3)RIL (grown at 16°C or 37°C) or in Hfq-deficient JW4130 (16°C); 5 mg lysate on Ni2+-charged Chelating Sepharose, 1 h 30 min at 8°C, washes with 60 mM imidazole in lysis buffer B (pH 7.4, 100 mM NaCl); SDS-PAGE, band near 70 kDa cut out and identified by mass spectrometry.

Experiment [4] deals with T4, T18-NudC (E. coli) (UniProt P32664).
T4 sequence: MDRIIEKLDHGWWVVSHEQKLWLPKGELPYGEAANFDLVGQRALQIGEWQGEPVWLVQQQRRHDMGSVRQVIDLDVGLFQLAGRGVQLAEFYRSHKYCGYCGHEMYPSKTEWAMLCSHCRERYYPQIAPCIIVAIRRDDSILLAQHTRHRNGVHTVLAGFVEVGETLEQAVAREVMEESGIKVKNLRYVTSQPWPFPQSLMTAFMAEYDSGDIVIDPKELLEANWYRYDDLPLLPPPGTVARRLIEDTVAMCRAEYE
Put plainly: two-hybrid; bacterial adenylate cyclase two-hybrid (BACTH) in E. coli BTH101; T18 and T25 fusions; colonies on LB agar with X-gal (40 µg/mL) and IPTG (0.5 mM) at 30°C, colour read after 2 days.

No constants are given. Whether binding was seen depends on the method and setting. For some of these results: In cells and extracts the contact can be indirect. Some binding calls cover weakened binding; strength is not graded here. For some of these results: Sequences can lack the tags named with a protein.

With “Hfq fused to T18 or T25 adenylate cyclase subunit (from UniProt P0A6X3 1-102)”, the binding result in experiment [1] is listed as “binds”.

B1: DEAD-box RNA helicase CsdA (K-12 strains) (protein, UniProt P0A9P6 1-629)
chain: MAEFETTFADLGLKAPILEALNDLGYEKPSPIQAECIPHLLNGRDVLGMAQTGSGKTAAFSLPLLQNLDPELKAPQILVLAPTRELAVQVAEAMTDFSKHMRGVNVVALYGGQRYDVQLRALRQGPQIVVGTPGRLLDHLKRGTLDLSKLSGLVLDEADEMLRMGFIEDVETIMAQIPEGHQTALFSATMPEAIRRITRRFMKEPQEVRIQSSVTTRPDISQSYWTVWGMRKNEALVRFLEAEDFDAAIIFVRTKNATLEVAEALERNGYNSAALNGDMNQALREQTLERLKDGRLDILIATDVAARGLDVERISLVVNYDIPMDSESYVHRIGRTGRAGRAGRALLFVENRERRLLRNIERTMKLTIPEVELPNAELLGKRRLEKFAAKVQQQLESSDLDQYRALLSKIQPTAEGEELDLETLAAALLKMAQGERTLIVPPDAPMRPKREFRDRDDRGPRDRNDRGPRGDREDRPRRERRDVGDMQLYRIEVGRDDGVEVRHIVGAIANEGDISSRYIGNIKLFASHSTIELPKGMPGEVLQHFTRTRILNKPMNMQLLGDAQPHTGGERRGGGRGFGGERREGGRNFSGERREGGRGDGRRFSGERREGRAPRRDDSTGRRRFGGDA
On to B1, for which the binding entry in experiment [2] and in experiment [3] was “binds” throughout.

B2: CsdA-T25 (protein, UniProt P0A9P6 1-629)
chain: MAEFETTFADLGLKAPILEALNDLGYEKPSPIQAECIPHLLNGRDVLGMAQTGSGKTAAFSLPLLQNLDPELKAPQILVLAPTRELAVQVAEAMTDFSKHMRGVNVVALYGGQRYDVQLRALRQGPQIVVGTPGRLLDHLKRGTLDLSKLSGLVLDEADEMLRMGFIEDVETIMAQIPEGHQTALFSATMPEAIRRITRRFMKEPQEVRIQSSVTTRPDISQSYWTVWGMRKNEALVRFLEAEDFDAAIIFVRTKNATLEVAEALERNGYNSAALNGDMNQALREQTLERLKDGRLDILIATDVAARGLDVERISLVVNYDIPMDSESYVHRIGRTGRAGRAGRALLFVENRERRLLRNIERTMKLTIPEVELPNAELLGKRRLEKFAAKVQQQLESSDLDQYRALLSKIQPTAEGEELDLETLAAALLKMAQGERTLIVPPDAPMRPKREFRDRDDRGPRDRNDRGPRGDREDRPRRERRDVGDMQLYRIEVGRDDGVEVRHIVGAIANEGDISSRYIGNIKLFASHSTIELPKGMPGEVLQHFTRTRILNKPMNMQLLGDAQPHTGGERRGGGRGFGGERREGGRNFSGERREGGRGDGRRFSGERREGRAPRRDDSTGRRRFGGDA
For B2, the binding entry in experiment [4] is “binds”.

Source of the values: paper PMC10654059.
